The source of these data is PMC5732324.

Sequences of proteins named here, by UniProt entry; tags and fusion partners are left off. Residues count along the entry.
UniProt P11021, residues 19-654: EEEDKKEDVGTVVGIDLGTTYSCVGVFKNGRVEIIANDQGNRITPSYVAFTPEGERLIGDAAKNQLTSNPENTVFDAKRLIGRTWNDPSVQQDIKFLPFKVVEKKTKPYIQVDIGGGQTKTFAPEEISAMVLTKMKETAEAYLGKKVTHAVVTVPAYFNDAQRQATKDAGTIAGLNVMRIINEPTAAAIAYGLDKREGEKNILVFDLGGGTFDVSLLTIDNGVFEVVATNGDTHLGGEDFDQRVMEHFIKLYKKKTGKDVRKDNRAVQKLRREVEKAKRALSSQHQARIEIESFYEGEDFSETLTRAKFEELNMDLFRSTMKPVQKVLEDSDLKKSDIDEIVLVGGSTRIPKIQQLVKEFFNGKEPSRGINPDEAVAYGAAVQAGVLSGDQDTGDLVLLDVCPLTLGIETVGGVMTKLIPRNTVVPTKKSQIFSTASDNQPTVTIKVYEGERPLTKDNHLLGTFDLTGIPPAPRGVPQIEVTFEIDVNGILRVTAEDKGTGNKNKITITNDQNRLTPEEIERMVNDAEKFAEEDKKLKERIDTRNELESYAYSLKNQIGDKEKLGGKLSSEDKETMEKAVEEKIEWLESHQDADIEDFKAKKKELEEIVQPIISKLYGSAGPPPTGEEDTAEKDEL
UniProt P11142: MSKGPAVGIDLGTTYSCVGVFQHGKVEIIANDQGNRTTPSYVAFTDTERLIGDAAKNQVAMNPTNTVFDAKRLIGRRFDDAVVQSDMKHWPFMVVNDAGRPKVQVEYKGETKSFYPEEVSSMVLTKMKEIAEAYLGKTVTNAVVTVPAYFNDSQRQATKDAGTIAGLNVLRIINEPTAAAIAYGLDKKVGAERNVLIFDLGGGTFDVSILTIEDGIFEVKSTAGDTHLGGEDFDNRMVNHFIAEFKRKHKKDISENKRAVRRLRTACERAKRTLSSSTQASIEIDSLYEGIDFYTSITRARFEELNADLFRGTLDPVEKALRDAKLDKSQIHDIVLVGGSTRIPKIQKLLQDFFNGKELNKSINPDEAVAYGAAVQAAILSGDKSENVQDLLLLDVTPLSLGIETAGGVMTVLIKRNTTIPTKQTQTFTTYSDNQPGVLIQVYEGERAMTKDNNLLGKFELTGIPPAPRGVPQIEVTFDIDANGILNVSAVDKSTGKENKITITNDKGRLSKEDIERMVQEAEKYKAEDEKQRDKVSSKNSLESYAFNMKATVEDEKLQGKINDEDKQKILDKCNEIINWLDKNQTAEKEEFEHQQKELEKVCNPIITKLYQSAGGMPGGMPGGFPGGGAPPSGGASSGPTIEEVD

These are yes or no findings as the source states them, for the method shown. Binding seen in cells or lysates may run through a third protein. Some results given as binding are weak or reduced against the parent protein; the word gives no strength. For some of these results: Tags and fused reporters may be left off the sequences shown.

One test concerns the target T1, GST-PDPK1 PH domain (UniProt O15530).
T1 sequence: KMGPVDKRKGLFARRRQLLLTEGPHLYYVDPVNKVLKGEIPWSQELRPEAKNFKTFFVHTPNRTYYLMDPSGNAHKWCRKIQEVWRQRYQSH
As to the kind of experiment: pull-down; GST-PDPK1 domains or GST-HSP90 domains from bacterial lysates on glutathione-Sepharose 4B beads, incubated with cell lysates containing LRRC4; eluted and run on a gel; only the target purified.

Test [1] has as its target T2, phosphoinositide-dependent protein kinase 1 (human (endogenous in HEK293 and U251)) (UniProt O15530).
T2 sequence: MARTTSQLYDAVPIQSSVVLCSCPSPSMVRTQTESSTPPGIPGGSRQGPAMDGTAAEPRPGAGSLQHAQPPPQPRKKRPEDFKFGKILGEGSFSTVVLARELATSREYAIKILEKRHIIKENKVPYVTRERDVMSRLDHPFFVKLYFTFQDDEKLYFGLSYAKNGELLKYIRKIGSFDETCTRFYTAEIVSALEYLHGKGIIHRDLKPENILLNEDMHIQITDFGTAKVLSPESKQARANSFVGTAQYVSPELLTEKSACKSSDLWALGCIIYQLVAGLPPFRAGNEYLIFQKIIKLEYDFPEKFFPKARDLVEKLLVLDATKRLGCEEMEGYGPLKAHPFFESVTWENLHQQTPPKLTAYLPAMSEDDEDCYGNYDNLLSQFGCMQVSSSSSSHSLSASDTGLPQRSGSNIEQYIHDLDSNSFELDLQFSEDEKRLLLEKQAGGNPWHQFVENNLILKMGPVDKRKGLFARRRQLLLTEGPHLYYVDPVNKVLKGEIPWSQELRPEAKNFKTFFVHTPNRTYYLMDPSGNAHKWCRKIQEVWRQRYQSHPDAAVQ
As to the kind of experiment: co-IP; 10^7 cells (HEK293 or U251-pcDNA3.1 LRRC4) lysed with GLB+ buffer; antibodies incubated with the lysate, then Protein G beads; Western blotting. A general note: A western blot detects proteins with antibodies after separation by electrophoresis.

Test [2] addresses HSPA5 (human (endogenous in U251)) (UniProt P11021). The test is described as above.
Test [3] addresses HSPA8 (human (endogenous in U251)) (UniProt P11142). The test is described as above.

B1: Leucine-rich repeat (LRR) C4 protein (protein, UniProt Q9HBW1 39-653)
chain: ASAGPQNCPSVCSCSNQFSKVVCTRRGLSEVPQGIPSNTRYLNLMENNIQMIQADTFRHLHHLEVLQLGRNSIRQIEVGAFNGLASLNTLELFDNWLTVIPSGAFEYLSKLRELWLRNNPIESIPSYAFNRVPSLMRLDLGELKKLEYISEGAFEGLFNLKYLNLGMCNIKDMPNLTPLVGLEELEMSGNHFPEIRPGSFHGLSSLKKLWVMNSQVSLIERNAFDGLASLVELNLAHNNLSSLPHDLFTPLRYLVELHLHHNPWNCDCDILWLAWWLREYIPTNSTCCGRCHAPMHMRGRYLVEVDQASFQCSAPFIMDAPRDLNISEGRMAELKCRTPPMSSVKWLLPNGTVLSHASRHPRISVLNDGTLNFSHVLLSDTGVYTCMVTNVAGNSNASAYLNVSTAELNTSNYSFFTTVTVETTEISPEDTTRKYKPVPTTSTGYQPAYTTSTTVLIQTTRVPKQVAVPATDTTDKMQTSLDEVMKTTKIIIGCFVAVTLLAAAMLIVFYKLRKRHQQRSTVTAARTVEIIQVDEDIPAATSAAATAAPSGVSGEGAVVLPTIHDHINYNTYKPAHGAHWTENSLGNSLHPTVTTISEPYIIQTHTKDKVQETQI
As to B1, the binding result in the test with GST-PDPK1 PH domain is “binds”; in test [1] it was “binds”; in test [2], “no binding”; in test [3], “no binding”.
